Reference: paper PMC11335225
No constants are given. Whether binding was seen depends on the method and setting. Binding seen in cells or lysates may run through a third protein. Some results given as binding are weak or reduced against the parent protein; the word gives no strength. Tags and fused reporters may be left off the sequences shown.

Sequences of proteins named here, by UniProt entry; tags and fusion partners are left off.
UniProt P56696: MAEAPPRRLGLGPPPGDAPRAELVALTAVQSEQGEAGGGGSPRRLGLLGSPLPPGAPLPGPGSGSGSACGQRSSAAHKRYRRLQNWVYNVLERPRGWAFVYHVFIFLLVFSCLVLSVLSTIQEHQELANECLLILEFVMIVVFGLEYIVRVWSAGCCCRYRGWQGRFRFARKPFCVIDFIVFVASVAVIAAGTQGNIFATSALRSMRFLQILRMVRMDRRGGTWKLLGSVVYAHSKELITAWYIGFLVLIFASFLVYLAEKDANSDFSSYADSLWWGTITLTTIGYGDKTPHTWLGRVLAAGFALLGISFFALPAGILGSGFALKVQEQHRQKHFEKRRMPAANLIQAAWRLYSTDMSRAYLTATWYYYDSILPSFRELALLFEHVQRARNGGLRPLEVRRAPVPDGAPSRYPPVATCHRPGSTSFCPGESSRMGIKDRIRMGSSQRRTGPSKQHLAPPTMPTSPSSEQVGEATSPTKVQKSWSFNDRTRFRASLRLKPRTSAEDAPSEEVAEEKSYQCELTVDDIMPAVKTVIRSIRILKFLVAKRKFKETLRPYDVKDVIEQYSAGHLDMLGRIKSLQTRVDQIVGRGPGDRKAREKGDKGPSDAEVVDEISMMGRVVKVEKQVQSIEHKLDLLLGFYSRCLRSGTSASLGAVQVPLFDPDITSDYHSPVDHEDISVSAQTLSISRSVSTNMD
UniProt O43526: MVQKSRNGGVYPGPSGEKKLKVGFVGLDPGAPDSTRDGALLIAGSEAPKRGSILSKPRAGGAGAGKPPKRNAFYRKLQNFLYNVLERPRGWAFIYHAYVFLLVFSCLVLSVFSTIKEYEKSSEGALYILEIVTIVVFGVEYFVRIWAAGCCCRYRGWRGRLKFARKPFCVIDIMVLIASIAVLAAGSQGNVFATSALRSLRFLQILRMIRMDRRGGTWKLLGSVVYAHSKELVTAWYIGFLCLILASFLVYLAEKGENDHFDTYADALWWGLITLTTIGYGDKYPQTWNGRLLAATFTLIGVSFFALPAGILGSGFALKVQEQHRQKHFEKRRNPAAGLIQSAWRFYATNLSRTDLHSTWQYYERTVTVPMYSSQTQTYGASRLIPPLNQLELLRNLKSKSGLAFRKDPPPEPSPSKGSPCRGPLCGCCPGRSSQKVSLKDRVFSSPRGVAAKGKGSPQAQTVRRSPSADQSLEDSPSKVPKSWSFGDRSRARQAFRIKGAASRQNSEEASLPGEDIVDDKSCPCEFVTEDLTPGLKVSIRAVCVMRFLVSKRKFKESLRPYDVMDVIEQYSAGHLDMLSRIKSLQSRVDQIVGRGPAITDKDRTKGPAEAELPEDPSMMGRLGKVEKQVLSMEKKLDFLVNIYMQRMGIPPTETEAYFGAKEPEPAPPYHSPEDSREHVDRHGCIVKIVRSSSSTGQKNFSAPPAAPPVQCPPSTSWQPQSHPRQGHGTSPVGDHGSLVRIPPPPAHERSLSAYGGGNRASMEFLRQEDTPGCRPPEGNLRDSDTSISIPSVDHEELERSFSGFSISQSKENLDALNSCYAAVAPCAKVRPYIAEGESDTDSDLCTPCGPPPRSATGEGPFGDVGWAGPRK

What was measured:
[1] = target: flag-tagged KV7.4 channel subunit (UniProt P56696); assay: co-IP; lysates of HEK293 cells expressing flag-tagged KV7 and myc-tagged KVS; anti-FLAG M2 beads, 4 C, 12 h, washed 4 times; western blot with anti-myc and anti-flag
[2] = target: flag-tagged KV7.2 channel subunit (UniProt O43526); assay: as above

- binding [1]: binds
- binding [2]: binds
B1: myc-tagged KV8.2 subunit (protein, UniProt Q8TDN2 1-545)
chain: MLKQSERRRSWSYRPWNTTENEGSQHRRSICSLGARSGSQASIHGWTEGNYNYYIEEDEDGEEEDQWKDDLAEEDQQAGEVTTAKPEGPSDPPALLSTLNVNVGGHSYQLDYCELAGFPKTRLGRLATSTSRSRQLSLCDDYEEQTDEYFFDRDPAVFQLVYNFYLSGVLLVLDGLCPRRFLEELGYWGVRLKYTPRCCRICFEERRDELSERLKIQHELRAQAQVEEAEELFRDMRFYGPQRRRLWNLMEKPFSSVAAKAIGVASSTFVLVSVVALALNTVEEMQQHSGQGEGGPDLRPILEHVEMLCMGFFTLEYLLRLASTPDLRRFARSALNLVDLVAILPLYLQLLLECFTGEGHQRGQTVGSVGKVGQVLRVMRLMRIFRILKLARHSTGLRAFGFTLRQCYQQVGCLLLFIAMGIFTFSAAVYSVEHDVPSTNFTTIPHSWWWAAVSISTVGYGDMYPETHLGRFFAFLCIAFGIILNGMPISILYNKFSDYYSKLKAYEYTTIRRERGEVNFMQRARKKIAECLLGSNPQLTPRQEN
